Our source for the binding values is PMC11176380.

By UniProt entry, the sequences of proteins in these tests, tags left out.
UniProt Q66JW3: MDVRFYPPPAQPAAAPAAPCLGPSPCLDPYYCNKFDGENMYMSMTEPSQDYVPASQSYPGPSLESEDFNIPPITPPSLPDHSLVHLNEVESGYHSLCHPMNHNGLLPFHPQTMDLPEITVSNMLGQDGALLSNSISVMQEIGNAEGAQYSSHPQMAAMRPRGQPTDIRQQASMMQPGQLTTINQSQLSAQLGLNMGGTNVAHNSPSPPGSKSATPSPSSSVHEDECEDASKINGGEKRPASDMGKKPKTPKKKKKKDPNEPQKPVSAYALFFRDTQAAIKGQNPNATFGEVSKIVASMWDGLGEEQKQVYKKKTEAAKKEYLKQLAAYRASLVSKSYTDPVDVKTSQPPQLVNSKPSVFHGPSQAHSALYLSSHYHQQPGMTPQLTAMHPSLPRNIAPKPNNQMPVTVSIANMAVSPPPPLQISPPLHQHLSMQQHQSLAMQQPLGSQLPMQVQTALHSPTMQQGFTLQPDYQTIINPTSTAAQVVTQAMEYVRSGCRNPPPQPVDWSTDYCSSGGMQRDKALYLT

The target in test [1] is T1, STAT1 (mouse (endogenous in spleen CD8+ T cells of C57BL/6J mice)) (UniProt P42225).
T1 sequence: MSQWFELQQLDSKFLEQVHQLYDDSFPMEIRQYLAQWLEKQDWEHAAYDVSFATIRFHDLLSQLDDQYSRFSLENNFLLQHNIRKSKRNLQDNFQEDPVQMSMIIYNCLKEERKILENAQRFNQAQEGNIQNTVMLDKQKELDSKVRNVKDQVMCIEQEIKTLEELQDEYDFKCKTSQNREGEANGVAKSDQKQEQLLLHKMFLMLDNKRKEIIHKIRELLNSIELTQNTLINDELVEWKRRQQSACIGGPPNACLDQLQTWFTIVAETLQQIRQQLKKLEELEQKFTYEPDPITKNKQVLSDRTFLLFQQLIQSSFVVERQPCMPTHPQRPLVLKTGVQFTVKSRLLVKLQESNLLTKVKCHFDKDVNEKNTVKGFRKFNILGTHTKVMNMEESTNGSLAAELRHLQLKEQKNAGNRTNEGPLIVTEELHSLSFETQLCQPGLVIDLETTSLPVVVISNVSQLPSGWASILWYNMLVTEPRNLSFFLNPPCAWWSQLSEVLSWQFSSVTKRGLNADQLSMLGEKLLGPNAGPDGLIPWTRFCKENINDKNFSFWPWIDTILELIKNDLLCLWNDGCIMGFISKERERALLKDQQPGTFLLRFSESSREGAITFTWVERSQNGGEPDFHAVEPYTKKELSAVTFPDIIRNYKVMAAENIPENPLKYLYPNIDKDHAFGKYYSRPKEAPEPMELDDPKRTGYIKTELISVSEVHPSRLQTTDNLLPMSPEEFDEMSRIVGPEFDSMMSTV
In words: co-IP; lysates of mouse CD8+ T cells (RIPA buffer, 4 °C; control or STAT1 siRNA transfected, 72 h) incubated with anti-HSP90α, anti-STAT1 or control IgG for 16 h at 4 °C, then Protein A/G beads 2 h; three washes; immunoblot.

Test [2] has as its target Heat shock protein 90α (mouse (endogenous in spleen CD8+ T cells of C57BL/6J mice)) (UniProt P07901). The test is described as above.

Results are given in words; binding and its absence hold for the method and conditions named. Binding seen in cells or lysates may run through a third protein. Some entries that bind do so weakly or less than the wild type.

Take TOX (from UniProt Q66JW3 1-526): the binding result in test [1] and in test [2] was “binds” in each case.
